According to US10273208B2, “Screening methods for the binding affinity of chemical entities to biological molecules and NEDD4-1 inhibitors identified by the screening methods” (Northwestern University, priority 2014, dated 2019):
Entries after “also recorded” stand apart in the source; their conditions may differ. At least one compound was matched to its structure with a doubt left.

What was measured:
NEDD4-1 HECT domain [1] = biological target: T1, NEDD4-1 HECT domain (Homo sapiens, UniProt P46934); test: In vitro ubiquitination assays; assay type: biochemical; settings: NEDD4-1 HECT pretreated with 1 mM compound for 3 h, quenched after 5 min
T1 construct: to elute NEDD4-1 HECT domain (50 mM HEPES, 150 mM NaCl, 0.1 mM EDTA 1 mM DTT); GST (N, cleaved yes); made in house; host or cells: E. coli BL21
T1 sequence (P46934 with tags, fused parts or gaps): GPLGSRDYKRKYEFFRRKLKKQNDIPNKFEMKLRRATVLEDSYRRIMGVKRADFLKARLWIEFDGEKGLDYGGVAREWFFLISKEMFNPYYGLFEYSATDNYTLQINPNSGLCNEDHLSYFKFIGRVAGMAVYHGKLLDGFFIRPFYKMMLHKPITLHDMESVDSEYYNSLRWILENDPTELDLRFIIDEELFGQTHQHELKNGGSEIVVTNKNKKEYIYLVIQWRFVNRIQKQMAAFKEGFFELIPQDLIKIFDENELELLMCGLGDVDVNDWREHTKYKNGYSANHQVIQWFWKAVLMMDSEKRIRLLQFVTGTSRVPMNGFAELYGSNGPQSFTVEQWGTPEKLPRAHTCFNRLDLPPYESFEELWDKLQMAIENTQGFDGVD
Description: FIG. 15A, FIG. 15B and FIG. 15C. (FIG. 15A) Enzymatic assay with compounds 1, 2, and 4. NEDD4-1 HECT domain was pretreated with 1% DMSO (lane 1), or 1 mM of compounds 1 (lane 2), 2 (lane 3), or 4 (lane 4) for 3 h before beginning the assay. The reaction mixtures were quenched after 5 min, and polyubiquitin chains were detected by Western blot with anti-ubiquitin antibody. (FIG. 15B) Cartoon depiction of the crystal structure of NEDD4-1:1 with key side chains and the inhibitor shown as spheres. (FIG. 15C) Close-up view of the inhibitor-binding site with the key side chains depicted as sticks and colored by atom type. The 2FO-FC electron density map (mesh, contoured at 1.0 σ) is presented for Cys^627 and 1.
FIG. 16A, FIG. 16B, FIG. 16C and FIG. 16D. (FIG. 16A) and (FIG. 16B) Compound 6 disrupts the NEDD4-1:Ub interaction as shown by a fluorescence polarization assay. Mean±s.e.m., n=3. (FIG. 16C) Compound 6 inhibits the ability of NEDD4-1 to polyubiquitinate the Wbp2-C-K222 protein substrate. NEDD4-1 was pretreated with 1% DMSO (lane 1), or 100 μM of compound 6 (lane 2) or compound 4 (lane 3) for 1.5 h before beginning the assay. Reaction mixtures were quenched at the indicated times and the amount of ubiquitinated Wbp2-C-K222 was determined using in-gel fluorescence. (FIG. 16D) Quantification of polyubiquitin chains in FIG. 16B. Mean±s.e.m., n=2. […]

NEDD4-1 HECT domain [2] = biological target: T1, NEDD4-1 HECT domain; test: Covalent labeling of NEDD4-1 HECT domain (gel filtration, whole protein ESI-MS); assay type: binding
Description: 10 μM of NEDD4-1 HECT domain in 50 mM HEPES 150 mM NaCl 0.1 mM EDTA 1 mM DTT pH 7.5 was treated with a mixture of ten fragments (from 10 mM each DMSO stock solution mixtures; final concentrations: 100 μM of each fragment, and 1% DMSO). Fragment structures and mixture compositions were the same as reported previously. The reaction mixture was incubated for 4 h at 23° C. before being passed through Zeba gel filtration columns (Thermo, 7K MWCO) to remove unreacted fragments. The protein solution was then immediately analyzed by whole protein LC/ESI-MS.
Accurate-mass data were obtained on an Agilent 6210A LC-TOF mass spectrometer in positive ion mode using electrospray ionization. Samples were chromatographed on the LC-TOF instrument using a Poroshell 120 EC-C18 HPLC column (2.1*50 mm, 2.7 micron), an Agilent Series 1200 HPLC binary pump, and an Agilent Series 1200 autoinjector. The HPLC column was held at 45° C. and the autosampler was held at 8° C. Mobile Phase A was a solution of 0.1% formic acid in water:acetonitrile (19:1). Mobile Phase B was a solution of 0.1% formic acid in acetonitrile. The flow rate was set to 250 μL/min. The gradient used was 0% B for 2 minutes, ramping linearly to 90% B from 2 minutes to 5 minutes, holding at 90% B from 5 minutes to 7 minutes, and then returning to 0% B at 7.1 minutes. The column was allowed to equilibrate for 2.7 minutes before the next injection was initiated. The eluent from the column was diverted to waste for the first 2 minutes. The spectra were acquired from 301 to 3200 daltons using a gas temperature of 340° C., a gas flow of 7 liters/min, and the nebulizer gas at 35 psi. The following voltages were used: capillary 4200 V, fragmentor 230V, skimmer 64V, and octapole RF peak 250V. Spectra were acquired at a rate of 1 spectra/sec. The data was processed using MassHunter software version B.02.00. Maximum entropy deconvolutions were performed with a Mass Step of 1, S/N Threshold of 30, Average Mass at 90% of Peak Height, and 5 Charge States Minimum. […]

Compound: COC(=O)/C=C/CNC(=O)c1ccc(CN2CCc3ccccc3C2)cc1 [Compound 2, Methyl(E)-4-(4-((3,4-dihydroisoquinolin-2(1H)-yl)methyl)benzamido)but-2-enoate]
- polyubiquitin chain assembly by NEDD4-1 (anti-ubiquitin Western blot) (NEDD4-1 HECT domain [1]): defective at assembling polyubiquitin chains; also recorded: inhibition of polyubiquitization
- labeling of NEDD4-1 HECT domain (qualitative) (NEDD4-1 HECT domain [2]; compound 100 μM, NEDD4-1 HECT 10 μM, 4 h): monolabel
- modification of NEDD4-1 HECT domain at 1 mM (NEDD4-1 HECT domain [2]; compound 1 mM, 3-4 h): complete modification
- covalent modification of NEDD4-1 HECT domain in the mixture screen (NEDD4-1 HECT domain [2]; ten mixtures of ten fragments, 100 μM each, 4 h): weak covalent modifiers
